Reference: patent US20220185844A1, “PEPTIDE-DERIVED THERAPEUTICS TARGETING SET8 FOR THE TREATMENT OF CANCER” (NUVOBIO CORPORATION, priority 2019, published 2022)
Results are given in words; binding and its absence hold for the method and conditions named. Some results given as binding are weak or reduced against the parent protein; the word gives no strength. Sequences can lack the tags named with a protein.

T1: Recombinant Set8-His6x, pHIS2 Set8(191-352) (Homo sapiens (Human)) (UniProt Q9NQR1)
T1 sequence: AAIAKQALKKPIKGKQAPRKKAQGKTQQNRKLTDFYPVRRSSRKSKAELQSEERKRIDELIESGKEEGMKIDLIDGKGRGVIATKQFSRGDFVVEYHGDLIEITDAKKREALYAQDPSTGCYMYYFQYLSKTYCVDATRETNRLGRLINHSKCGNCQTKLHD


Biological target: T1, Recombinant Set8-His6x, pHIS2 Set8(191-352) (Homo sapiens (Human))
Test: fluorescent polarization

binding, binds:
THHHKHPGG (fluorescein label; position of the label not stated for the polarization assay) [fluorescein-labeled KBL9]

Biological target: T1, Recombinant Set8-His6x, pHIS2 Set8(191-352) (Homo sapiens (Human))
Test: OPAL/SPOT peptide arrays probed with 1 µM Set8-His6x, anti-His-HRP chemiluminescence

binding, binds:
THHHKHPHA [EP 1]
THHHKHPHH [EP 2]
THHHKHPKH [EP 3]
THHHKHPHT [EP 4]
THHHKHPKT [EP 5]
THHHKHPHK (also called EP 6) [KBL2]
THHHKHPGR (also called EP 21) [KBL4]
THHHKHPGA (also called EP 22) [KBL6]
THHHKHPGQ (also called EP 19) [KBL8]
SHHHKHPHG (also called EP 24) [KBL10]
THHHKHPEQ (also called EP 7) [KBL13]
THHHKHPHQ (also called EP 8) [KBL15]
SHHHKHPKA [EP 9]
THHHKHPHE [EP 10]
THHHKHPGT [EP 11]
THHHKHPEG [EP 12]
THHHKHPGH [EP 13]
THHHKHPHG [EP 14]
THHHKHPKA [EP 15]
THHHKHPGK [EP 16]
THHHKHPKK [EP 17]
THHHKHPGG (also called EP 18; EP18) [KBL9]
SHHHKHPGT [EP 20]
THHHKHPGE [EP 23]
SHHHKHPGH [EP 25]
